The source of these data is CN101605906A.

No constants are given. Whether binding was seen depends on the method and setting. Some results given as binding are weak or reduced against the parent protein; the word gives no strength. Where a sequence is shown, tags or fusion partners need not be part of it.

The target of assay [1] is T1, 重组的带myc标签的CD70 (human) (UniProt P32970).
T1 sequence: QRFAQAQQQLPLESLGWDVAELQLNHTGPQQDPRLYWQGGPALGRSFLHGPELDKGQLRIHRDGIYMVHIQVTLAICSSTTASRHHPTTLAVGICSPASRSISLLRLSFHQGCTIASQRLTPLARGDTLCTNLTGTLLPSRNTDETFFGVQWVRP
The assay can be described thus: ELISA, legend of Fig. 16 (antibodies named in paragraph 887).

The target of assay [2] is T1, 重组的带myc标签的CD70 (human). The assay can be described thus: ELISA, myc-tagged CD70 coated on plate, antibody from 1 ug/ml in 1:2 dilutions.

B1: 抗-CD70人类单克隆抗体10B4 (antibody, V domains shown)
VH: QIQLVESGGGVVQPGRSLRLSCAASGFTFGYYAMHWVRQAPGKGLEWVAVISYDGSIKYYADSVKGRFTISRDNSKNTLYLQMNSLRAEDTAVYYCAREGPYSNYLDYWGQGTLVTVSS
VL: AIQLTQSPSSLSASVGDRVTITCRASQGISSALAWYQQKPGKAPKFLIYDASSLESGVPSRFSGSGSGTDFTLTISSLQPEDFATYYCQQFNSYPFTFGPGTKVDIK
In the case of B1, the binding result in assay [1] and in assay [2] was “binds” throughout.

B2: 抗-CD70人类单克隆抗体8B5 (antibody, V domains shown)
VH: QVQLVESGGGVVQPGRSLRLSCATSGFTFSDYGMHWVRQAPGKGLEWVAVIWYDGSNKYYADSVKGRFTISRDNSKKTLSLQMNSLRAEDTAVYYCARDSIMVRGDYWGQGTLVTVSS
VL: DIQMTQSPSSLSASVGDRVTITCRASQGISSWLAWYQQKPEKAPKSLIYAASSLQSGVPSRFSGSGSGTDFTLTISSLQPEDFATYYCQQYNSYPLTFGGGTKVEIK
Consider B2, for which the binding entry in assay [1] and in assay [2] was “binds” in each case.
